HELM strings list residues between dots; [ac] is acetyl, [am] amide, other brackets name non-standard units.

Data on 1 substance can be found in publication PMC10296995 (Cells, 2023).

This data set can be described thus: peptide made by a vendor (Fmoc solid-phase peptide synthesis). As to conditions: whole synthesis.

As to PEPTIDE1{[ac].S.D.K.P}$$$$V2.0, the “purity (crude or final not stated)” value is more than 98%.
